Consider one molecule from publication PMC5025654.

These are yes or no findings as the source states them, for the method shown. Binding can be weak; no strength is given.

In assay [1] the target is TGF-β1 of the porcine enamel matrix (porcine (endogenous in porcine enamel)). Nature of the assay: ELISA; sandwich ELISA (Quantikine kit, R&D Systems) with TGF-β1 capture and TGF-β1 detection antibodies on RP-HPLC-purified amelogenins; amount of TGF-β1 calculated from standard TGF-β1; complexes formed in vivo.
The target is the same in assay [2]. Nature of the assay: ELISA; modified sandwich ELISA: RP-HPLC-purified amelogenin samples on a plate coated with the TGF-β1 capture antibody, detected with biotinylated amelogenin antibody and HRP-conjugated streptavidin; complexes formed in vivo. (In general: An ELISA detects its analyte on a solid surface through an enzyme-linked reagent.)

B1: P173 amelogenin (protein, UniProt P45561 17-189)
chain: MPLPPHPGHPGYINFSYEVLTPLKWYQNMIRHPYTSYGYEPMGGWLHHQIIPVVSQQTPQSHALQPHHHIPMVPAQQPGIPQQPMMPLPGQHSMTPTQHHQPNLPLPAQQPFQPQPVQPQPHQPLQPQSPMHPIQPLLPQPPLPPMFSMQSLLPDLPLEAWPATDKTKREEVD
For B1, the binding entry in assay [1] and in assay [2] was “binds” each time.
